## Screening data

Data taken from PubChem BioAssay AID1053133, deposited by Broad Institute (2014).

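Vaccinia-infected cells with a two-color viral stage reporter; Venus fluorescence read on a plate reader; the cell line is not named here; timing not stated here. The test concentration is not given here. Percent change in Venus reporter signal; lower (more negative) values mean stronger inhibition of that viral stage.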

Values are in %. How 0% and 100% were set is not given here. Common to all entries: measured here: Venus reporter, other viral stage. Part of the compounds only, not a random draw; the main read-out is not listed here.

With CC(=O)N1CC2(C1)[C@H](c1ccc(-c3cccc(F)c3)cc1)[C@H](CO)N2CC1CCCC1 the assay gave activity change (Venus) -71.96%. With C[C@H](CO)N1C[C@H](C)[C@H](CN(C)S(=O)(=O)c2ccc(C#N)cc2)Oc2ncc(-c3cc4ccccc4o3)cc2C1=O the assay gave activity change (Venus) -58.18%. For C[C@H](CO)N1C[C@H](C)[C@@H](CN(C)S(=O)(=O)c2cccs2)OCc2ccccc2-c2c(n(C)c3ccccc23)C1=O the result was activity change (Venus) -38.19%. With C[C@@H]1CN([C@@H](C)CO)C(=O)c2ccccc2-c2ccccc2CO[C@@H]1CN(C)C(=O)c1cc(Cl)cc(Cl)c1 the assay gave activity change (Venus) -19.5%. For OC[C@@H]1[C@H](c2ccc(-c3cccc(F)c3)cc2)[C@H]2CN(CCC(F)(F)F)CCCCN12 the result was activity change (Venus) -57.67%. For C[C@@H]1CN([C@H](C)CO)C(=O)c2c(c3ccccc3n2C)-c2ccccc2CO[C@@H]1CN(C)C(=O)[C@H](Cc1ccccc1)N(C)C the result was activity change (Venus) -56.27%.

For C[C@H]1CCCCO[C@@H](CN(C)S(=O)(=O)c2ccccc2)[C@@H](C)CN([C@@H](C)CO)C(=O)c2cc(NC(=O)NC3CCCCC3)ccc2O1 the result was activity change (Venus) -32.25%. CO[C@H](CN(C)C(=O)Nc1ccc(C(F)(F)F)cc1)[C@H](C)CN(Cc1ccccc1Cl)[C@@H](C)CO read activity change (Venus) -37.93%. For COc1ccc(NC(=O)N2CC(=O)N3[C@H](C2)[C@H](c2ccc(C#CCC4CCCC4)cc2)[C@@H]3CO)cc1 the result was activity change (Venus) -46.89%. C[C@H]1CCCCO[C@H](CN(C)Cc2ccc(C(F)(F)F)cc2)[C@@H](C)CN([C@@H](C)CO)C(=O)c2cc(NC(=O)c3ccncc3)ccc2O1 gave activity change (Venus) -73.93%. COc1ccccc1CN1[C@@H](CO)[C@@H]2c3ccccc3N(C(=O)C3CCCCC3)C[C@@H]21 gave activity change (Venus) -24.92%. C[C@H](CO)N1C[C@H](C)[C@@H](CN(C)S(=O)(=O)c2ccc(Cl)cc2)Oc2ccc(NC(=O)C3CCCCC3)cc2CC1=O gave activity change (Venus) -27.94%.

For C[C@H]1CN([C@@H](C)CO)S(=O)(=O)c2ccc(C#Cc3ccc(F)cc3)cc2O[C@H]1CN(C)S(=O)(=O)c1cn(C)cn1 the result was activity change (Venus) -75.95%. COc1cccc(-c2ccc3c(c2)O[C@H](CN(C)C(=O)C2CCC2)[C@H](C)CN([C@@H](C)CO)S3(=O)=O)c1 gave activity change (Venus) -34.58%. O=C(C1CCCC1)N1CC(=O)N2[C@H](CO)[C@@H](c3ccc(C#Cc4cccc(F)c4)cc3)[C@H]2C1 gave activity change (Venus) -29.98%. With Cc1ccc(S(=O)(=O)N[C@H]2C=C[C@H](CC(=O)N3CCC(Cc4ccccc4)CC3)O[C@@H]2CO)cc1 the assay gave activity change (Venus) -40.19%. With C[C@@H]1CN([C@H](C)CO)C(=O)c2cc(Br)cnc2O[C@H]1CN(C)C(=O)Cc1ccncc1 the assay gave activity change (Venus) -80.22%. Result for C[C@@H]1CN([C@H](C)CO)C(=O)c2cc(NS(=O)(=O)c3ccccc3)ccc2O[C@@H](C)CCCCO[C@@H]1CN(C)Cc1ccc(Cl)c(Cl)c1 was activity change (Venus) -61.74%.

O=C(c1ccc(F)cc1)N1C[C@@H]2N[C@H](C1)C2c1ccc(-c2ccc(F)cc2)cc1 (stereo partly drawn) gave activity change (Venus) -100.2%. For CCC(=O)N(C)C[C@@H]1Oc2cc(C#Cc3ccccc3)ccc2S(=O)(=O)N([C@H](C)CO)C[C@H]1C the result was activity change (Venus) -31.26%. For O=C(C[C@@H]1CC[C@@H]2[C@H](COC[C@H](O)CN2Cc2ccc(Oc3ccccc3)cc2)O1)N1CCOCC1 the result was activity change (Venus) -37.32%. O=C(Nc1ccc(F)cc1)N1CCCCN2[C@@H](CO)[C@H](c3ccc(C#Cc4ccccc4)cc3)[C@@H]2C1 read activity change (Venus) -76.16%. For CN(C)c1ccc2c(c1)[C@H]1C[C@H](CC(=O)NCc3ccc(Oc4ccccc4)cc3)O[C@@H](CO)[C@H]1O2 the result was activity change (Venus) -28.05%.

Once more, the final 2:

{"smiles": "O=C(Nc1ccc(F)cc1)N1CCCCN2[C@@H](CO)[C@H](c3ccc(C#Cc4ccccc4)cc3)[C@@H]2C1", "activity change (Venus) (%)": "-76.16"}
{"smiles": "CN(C)c1ccc2c(c1)[C@H]1C[C@H](CC(=O)NCc3ccc(Oc4ccccc4)cc3)O[C@@H](CO)[C@H]1O2", "activity change (Venus) (%)": "-28.05"}